IC50 data for 1 molecule are collected here from patent US20090110739A1, “Targeted cancer chemotherapy using synthetic nanoparticles” (University of North Texas Health Science Center at Forth …, priority 2007, published 2009).

For the assay, the system named is MCF7. As to the kind of experiment: MTT cytotoxicity, MCF7 breast cancer cell line. In kind it is cell-based. As to conditions: Homo sapiens; MCF7 cells. Here is the method:
The cytotoxic effect of each HDL/drug preparation on breast cancer cells to be assessed by measuring the conversion of the tetrazolium dye MTT to formazan in a microtiter plate format.
The cells will be subsequently washed from the flask with complete media, and then centrifuged for 5 minutes at 1000 g to pellet the cells. The cells are then resuspended in complete media. An aliquot is obtained and diluted 1:1 with Trypan Blue. The cells are counted and their viability determined according to the following procedure. The cells are seeded in 96 well microtiter plates (at 3000 cells per well) and allowed to attach for 24 hours. Taxol is diluted to yield a stock solution of 5 μg per 1 ml of PBS and added in 40 μl aliquots to each of the appropriate wells (total volume of 120 μl/well). Controls include media+PTX. […] After a 2 hour incubation at 37° C. and 5.0% CO2, 100 μl of lysing buffer is added to each well. The plates were incubated at 37° C. and 5.0% CO2 overnight, removed from the incubator and then allowed to cool for 15 minutes at room temperature before measuring the absorbance values at 595 nm.

As usually defined, the IC50 is the concentration that inhibits the measured activity by half. The low end stands for greater potency, the high end for weaker potency. The molecule `CC(=O)O[C@H]1C(=O)[C@@]2(C)[C@H]([C@H](OC(=O)c3ccccc3)[C@]3(O)C[C@H](OC(=O)[C@H](O)[C@@H](NC(=O)c4ccccc4)c4ccccc4)C(C)=C1C3(C)C)[C@]1(OC(C)=O)CO[C@@H]1C[C@@H]2O` [Ptx, paclitaxel] registered an IC50 of 14.2 µM. That is a double-digit micromolar value.
